## Screening data, single-dose tests

The chains behind the UniProt entries cited, without tags or fusion partners. Residues count along the entry.
UniProt I6X8D2, whole entry: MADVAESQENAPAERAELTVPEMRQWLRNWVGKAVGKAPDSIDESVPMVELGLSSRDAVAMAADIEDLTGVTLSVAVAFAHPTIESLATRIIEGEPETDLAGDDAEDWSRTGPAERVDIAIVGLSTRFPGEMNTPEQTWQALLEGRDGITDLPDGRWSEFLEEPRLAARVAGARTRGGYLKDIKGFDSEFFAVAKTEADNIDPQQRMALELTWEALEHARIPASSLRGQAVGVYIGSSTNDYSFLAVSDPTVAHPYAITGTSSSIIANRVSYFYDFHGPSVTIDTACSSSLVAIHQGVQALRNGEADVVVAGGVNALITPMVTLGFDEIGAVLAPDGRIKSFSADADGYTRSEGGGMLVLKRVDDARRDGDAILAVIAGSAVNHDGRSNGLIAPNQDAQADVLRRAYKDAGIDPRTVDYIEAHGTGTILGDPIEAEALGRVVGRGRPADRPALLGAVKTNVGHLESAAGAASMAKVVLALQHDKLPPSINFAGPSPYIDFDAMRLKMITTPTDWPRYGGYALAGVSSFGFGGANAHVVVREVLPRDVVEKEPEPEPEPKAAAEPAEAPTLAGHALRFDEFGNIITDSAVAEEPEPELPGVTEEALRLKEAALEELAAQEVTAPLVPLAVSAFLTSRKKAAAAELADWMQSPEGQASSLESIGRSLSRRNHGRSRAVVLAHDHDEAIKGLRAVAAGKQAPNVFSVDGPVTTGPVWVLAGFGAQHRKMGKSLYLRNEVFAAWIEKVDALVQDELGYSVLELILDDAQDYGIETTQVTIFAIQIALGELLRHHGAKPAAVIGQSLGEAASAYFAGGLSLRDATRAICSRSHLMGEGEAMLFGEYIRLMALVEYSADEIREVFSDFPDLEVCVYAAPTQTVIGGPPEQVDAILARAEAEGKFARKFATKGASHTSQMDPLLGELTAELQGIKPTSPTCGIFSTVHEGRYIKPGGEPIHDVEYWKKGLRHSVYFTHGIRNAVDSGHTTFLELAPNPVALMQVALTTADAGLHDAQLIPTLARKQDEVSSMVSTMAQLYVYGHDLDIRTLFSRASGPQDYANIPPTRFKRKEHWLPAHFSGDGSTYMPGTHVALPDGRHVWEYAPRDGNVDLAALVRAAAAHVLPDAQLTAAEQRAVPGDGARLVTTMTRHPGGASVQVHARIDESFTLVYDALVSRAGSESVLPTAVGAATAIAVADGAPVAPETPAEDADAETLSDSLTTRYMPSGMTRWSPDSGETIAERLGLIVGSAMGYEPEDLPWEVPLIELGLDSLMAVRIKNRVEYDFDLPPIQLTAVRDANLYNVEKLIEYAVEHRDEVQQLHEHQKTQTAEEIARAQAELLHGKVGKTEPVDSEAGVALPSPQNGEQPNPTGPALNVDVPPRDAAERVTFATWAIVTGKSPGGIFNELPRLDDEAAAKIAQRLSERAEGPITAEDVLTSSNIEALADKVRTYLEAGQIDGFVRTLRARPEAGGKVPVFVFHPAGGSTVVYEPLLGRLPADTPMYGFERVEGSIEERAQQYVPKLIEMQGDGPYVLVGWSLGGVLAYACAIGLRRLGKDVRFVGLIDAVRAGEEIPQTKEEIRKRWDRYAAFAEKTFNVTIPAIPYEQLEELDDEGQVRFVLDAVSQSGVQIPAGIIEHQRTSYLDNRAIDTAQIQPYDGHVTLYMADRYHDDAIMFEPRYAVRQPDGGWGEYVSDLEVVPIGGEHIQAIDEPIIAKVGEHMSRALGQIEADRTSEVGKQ
UniProt P9WFT3, whole entry: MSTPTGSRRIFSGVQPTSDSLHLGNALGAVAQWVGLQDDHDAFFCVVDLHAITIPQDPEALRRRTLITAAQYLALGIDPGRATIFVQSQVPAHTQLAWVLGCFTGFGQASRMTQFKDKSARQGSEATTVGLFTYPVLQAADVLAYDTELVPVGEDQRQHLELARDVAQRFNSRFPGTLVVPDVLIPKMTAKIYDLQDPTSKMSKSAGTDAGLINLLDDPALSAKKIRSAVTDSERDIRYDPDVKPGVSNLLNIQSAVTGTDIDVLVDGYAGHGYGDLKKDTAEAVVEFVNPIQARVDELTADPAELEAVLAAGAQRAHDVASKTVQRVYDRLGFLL
UniProt P9WNZ1, whole entry: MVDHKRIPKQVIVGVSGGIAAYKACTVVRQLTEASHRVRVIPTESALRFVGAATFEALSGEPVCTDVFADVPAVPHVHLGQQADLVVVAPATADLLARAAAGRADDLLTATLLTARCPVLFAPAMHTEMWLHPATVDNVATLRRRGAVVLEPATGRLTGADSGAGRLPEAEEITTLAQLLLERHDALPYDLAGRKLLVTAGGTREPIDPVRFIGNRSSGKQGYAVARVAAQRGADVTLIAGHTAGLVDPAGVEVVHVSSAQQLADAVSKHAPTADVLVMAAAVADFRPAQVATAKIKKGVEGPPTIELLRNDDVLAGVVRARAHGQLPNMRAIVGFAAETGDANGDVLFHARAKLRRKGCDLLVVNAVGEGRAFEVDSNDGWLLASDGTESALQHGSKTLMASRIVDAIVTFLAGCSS
UniProt Q8IDJ8, 1-583: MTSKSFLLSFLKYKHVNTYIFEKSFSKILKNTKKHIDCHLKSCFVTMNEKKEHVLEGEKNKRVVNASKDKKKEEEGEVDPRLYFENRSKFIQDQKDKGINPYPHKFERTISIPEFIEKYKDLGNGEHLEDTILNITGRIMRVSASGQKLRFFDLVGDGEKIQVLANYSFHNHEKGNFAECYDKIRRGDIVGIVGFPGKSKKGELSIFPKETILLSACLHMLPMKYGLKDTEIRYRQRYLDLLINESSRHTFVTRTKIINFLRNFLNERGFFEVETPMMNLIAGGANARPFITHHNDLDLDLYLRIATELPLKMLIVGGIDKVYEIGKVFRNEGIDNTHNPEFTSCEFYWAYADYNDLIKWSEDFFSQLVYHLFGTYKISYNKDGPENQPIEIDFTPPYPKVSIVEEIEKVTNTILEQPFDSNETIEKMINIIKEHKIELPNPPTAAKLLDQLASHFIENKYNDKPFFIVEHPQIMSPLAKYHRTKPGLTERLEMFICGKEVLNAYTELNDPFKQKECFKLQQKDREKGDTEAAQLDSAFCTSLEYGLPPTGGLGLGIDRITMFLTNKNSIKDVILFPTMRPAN

Measurements from “University of Dundee, Small-Polar-MMV Screening Library” (2021), ChEMBL document CHEMBL3988442.

Pks13 thioesterase: 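Enzyme assay of the thioesterase domain of polyketide synthase 13; the read-out is not stated. Target: Polyketide synthase Pks13, Mycobacterium tuberculosis (UniProt I6X8D2). Concentration: 30 µM. The record gives no direction; the compounds picked for IC50 retests had high values, so higher reads as stronger inhibition. About 67,000 compounds were tested under these conditions; 0.46% (about 300) showed 50% or more at least once.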
MtTrpRS: 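Enzyme assay of tryptophanyl-tRNA synthetase; the read-out is not stated. Target: Tryptophan-tRNA ligase, Mycobacterium tuberculosis (UniProt P9WFT3). Compounds at 10 µM. Higher most likely means stronger inhibition; the record gives no direction and few retests gave an IC50. Of about 65,000 compounds tested this way, about 64 (0.098%) reached 50% or more in at least one test.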
CoaBC: 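Enzyme assay of CoaBC with a phosphate dye (Biomol Green) read at 650 nm. Target: Coenzyme A biosynthesis protein CoaBC, Mycobacterium tuberculosis (UniProt P9WNZ1). Tested at 30 µM. Direction is inferred from only a few compounds that gave an IC50; most scored high, so higher reads as stronger inhibition. Most strong results did not repeat in a second test. Of about 67,000 compounds tested this way, about 40 (0.06%) reached 50% or more in at least one test.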
PfKRS1: 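Enzyme assay of the cytosolic lysyl-tRNA synthetase in 384-well plates, read by luminescence. Target: Lysine-tRNA ligase, Plasmodium falciparum 3D7 (UniProt Q8IDJ8). Tested at 30 µM. Direction is inferred from only a few compounds that gave an IC50; most scored high, so higher reads as stronger inhibition. Of about 69,000 compounds tested this way, about 49 (0.071%) reached 50% or more in at least one test.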

Each number is a percent effect as filed. How 0% and 100% were set is not recorded. Most values in the screen are low, and negative values occur. This is an unselected part of the compounds tested.

With CCc1nc(Nc2ccc(C(=O)NC)cc2)c2c(n1)c(C)nn2CC the screen gave Pks13 thioesterase: -5.425%; MtTrpRS: 0.6477%; CoaBC: 18.24%; PfKRS1: 4.922%. With COCCOCC(=O)Nc1cccc(CN(C)C(C)=O)c1 the screen gave Pks13 thioesterase: -12.65%; MtTrpRS: -4.545%; CoaBC: -1.691%; PfKRS1: 6.302%. For CN(C)CC(=O)N1CCC2(CC1)COCCN(c1ncccn1)C2 the result was Pks13 thioesterase: -36.58%; MtTrpRS: 7.895%; CoaBC: -4.198%; PfKRS1: -2.57%. For COc1ccc(C2(C(=O)NCc3c(C)ncc4c3CCNC4)CC2)cc1 the result was Pks13 thioesterase: -30.43%; MtTrpRS: 2.514%; CoaBC: 7.042%; PfKRS1: 9.903%. COCCn1ccc(=O)c(OCC(=O)Nc2cccc(OC)c2)c1C gave Pks13 thioesterase: -30.11%; MtTrpRS: -1.4%; CoaBC: -1.816%; PfKRS1: 0.4596%. CCOc1ccnc(N2CCCN(C(=O)c3cc[nH]c3C)CC2)n1 gave Pks13 thioesterase: -4.206%; MtTrpRS: 9.971%; CoaBC: -1.837%; PfKRS1: -2.355%. For COCc1cc(NCCc2ccc(OC)cc2)n2nccc2n1 the result was Pks13 thioesterase: 9.643%; MtTrpRS: 3.943%; CoaBC: 1.139%; PfKRS1: 8.343%. CCc1nnc2n1CCN(C(=O)C(C)COCc1ccccc1)C2 (configuration not stated) read Pks13 thioesterase: -19.09%; MtTrpRS: -4.191%; CoaBC: 9.85%; PfKRS1: 2.873%.

With O=C(c1ccon1)N1CCCC(n2cncn2)C1 (configuration not stated) the screen gave Pks13 thioesterase: -13.7%; MtTrpRS: -6.016%; CoaBC: 1.053%; PfKRS1: 2.296%. Result for CC(C)CN1CC(C(=O)NCc2ccnc(-n3cccn3)c2)CC1=O (configuration not stated) was Pks13 thioesterase: -47.11%; MtTrpRS: 18.05%; CoaBC: 3.158%; PfKRS1: -0.7831%. With O=C(NCC1CCOCC1)c1cc(-c2ccc3c(c2)CCO3)n[nH]1 the screen gave Pks13 thioesterase: -1.244%; MtTrpRS: -0.7703%; CoaBC: 1.768%; PfKRS1: -0.3879%. O=C(O)C1(Cc2cc(-c3ccc(F)cc3)no2)CCOCC1 read Pks13 thioesterase: -5.954%; CoaBC: -1.453%; PfKRS1: 1.625%. With Cc1ccc(N2CCC3(CCN(C(=O)c4ccsc4)CC3)C2)nn1 the screen gave Pks13 thioesterase: -2.673%; MtTrpRS: -0.4188%; CoaBC: 2.76%; PfKRS1: 1.448%. For c1cncc(CNc2ncnc3c2CCN(Cc2ccsc2)CC3)c1 the result was MtTrpRS: -3.762%; CoaBC: 4.551%; PfKRS1: 2.793%. Cc1nn(C)cc1C(=O)NCc1cc(N(C)C)nc2ccccc12 read Pks13 thioesterase: 8.151%; MtTrpRS: 1.117%; CoaBC: -4.907%; PfKRS1: 3.025%. CCS(=O)(=O)NCC(=O)NC(c1cc(C)sc1C)C(C)C (configuration not stated) read Pks13 thioesterase: 0.6923%; MtTrpRS: -0.1971%; CoaBC: -0.9346%; PfKRS1: 6.928%.

CN(Cc1cccs1)C(=O)CS(=O)(=O)Cc1ccc(Cl)c(Cl)c1 read Pks13 thioesterase: 0.9265%; MtTrpRS: 0.2346%; CoaBC: 6.41%; PfKRS1: 6.667%. Cc1cc(C)n(CCN2CCN(C(=O)c3ccccc3Br)CC2)n1 gave Pks13 thioesterase: -33.7%; MtTrpRS: -0.3799%; CoaBC: -4.017%; PfKRS1: 2.388%. With Cc1ccc(CNC(=O)NC(C)CN2CCOCC2)s1 (configuration not stated) the screen gave Pks13 thioesterase: 3.513%; MtTrpRS: 1.231%; CoaBC: -2.066%; PfKRS1: 4.849%. With CNC(=O)C1CCCCN1C(=O)C1CCN(S(C)(=O)=O)CC1 (configuration not stated) the screen gave MtTrpRS: -0.9497%; CoaBC: 8.171%; PfKRS1: 6.287%. O[C@@H]1CCN(c2ccc3c(Cl)ccnc3c2F)C1 read Pks13 thioesterase: -27.09%; MtTrpRS: -0.6192%; PfKRS1: 2.907%. CCOCCNCC1CCN(CCO)CC1 read Pks13 thioesterase: -33.79%; MtTrpRS: -2.816%; CoaBC: -7.018%; PfKRS1: -1.327%. Cn1ccc(C(=O)N2CCCN(CCCc3ccccc3)CC2)cc1=O read Pks13 thioesterase: -2.807%; MtTrpRS: -1.111%; CoaBC: 0%; PfKRS1: 6.286%. O=C(CC1CCCC1)N1CCN(c2ccc(-n3cncn3)nn2)CC1 read Pks13 thioesterase: -23.97%; MtTrpRS: -1.596%; CoaBC: 9.091%; PfKRS1: 1.369%.

Result for Cc1cccc2nc(CN3CCCC(Cn4ccnn4)C3)cc(=O)n12 (configuration not stated) was Pks13 thioesterase: 4.529%; MtTrpRS: 6.699%; CoaBC: -0.319%; PfKRS1: -0.8467%. Result for COc1ccc(-c2cc(C3(O)CCN(C)CC3)on2)cc1 was Pks13 thioesterase: -17.77%; MtTrpRS: -2.583%; CoaBC: 7.071%; PfKRS1: -2.116%. COc1ccc(C(=O)Nc2c(C)nn(C(C)C)c2C)cc1 read Pks13 thioesterase: -7.855%; MtTrpRS: -3.232%; CoaBC: 0.3636%; PfKRS1: -0.9459%. Result for COCc1cc(CNC(=O)c2cccc3c2OCC3)n[nH]1 was Pks13 thioesterase: -17.07%; MtTrpRS: -1.72%; CoaBC: 0.6242%; PfKRS1: 2.835%. Result for CSc1[nH]nc(NC(=O)c2ccncc2)c1C#N was Pks13 thioesterase: -39.46%; MtTrpRS: -0.3236%; CoaBC: -2.892%; PfKRS1: 1.167%.

The first 3 entries again:

structure	Pks13 thioesterase	MtTrpRS	CoaBC	PfKRS1
CCc1nc(Nc2ccc(C(=O)NC)cc2)c2c(n1)c(C)nn2CC	-5.425%	0.6477%	18.24%	4.922%
COCCOCC(=O)Nc1cccc(CN(C)C(C)=O)c1	-12.65%	-4.545%	-1.691%	6.302%
CN(C)CC(=O)N1CCC2(CC1)COCCN(c1ncccn1)C2	-36.58%	7.895%	-4.198%	-2.57%